Reference: article PMC7260207
These are yes or no findings as the source states them, for the method shown. In cells and extracts the contact can be indirect. Some entries that bind do so weakly or less than the wild type.

Protein sequences, listed by entry. Tags and fused reporters are not part of them. Residues count along the entry.
UniProt Q16620, residues 32-822: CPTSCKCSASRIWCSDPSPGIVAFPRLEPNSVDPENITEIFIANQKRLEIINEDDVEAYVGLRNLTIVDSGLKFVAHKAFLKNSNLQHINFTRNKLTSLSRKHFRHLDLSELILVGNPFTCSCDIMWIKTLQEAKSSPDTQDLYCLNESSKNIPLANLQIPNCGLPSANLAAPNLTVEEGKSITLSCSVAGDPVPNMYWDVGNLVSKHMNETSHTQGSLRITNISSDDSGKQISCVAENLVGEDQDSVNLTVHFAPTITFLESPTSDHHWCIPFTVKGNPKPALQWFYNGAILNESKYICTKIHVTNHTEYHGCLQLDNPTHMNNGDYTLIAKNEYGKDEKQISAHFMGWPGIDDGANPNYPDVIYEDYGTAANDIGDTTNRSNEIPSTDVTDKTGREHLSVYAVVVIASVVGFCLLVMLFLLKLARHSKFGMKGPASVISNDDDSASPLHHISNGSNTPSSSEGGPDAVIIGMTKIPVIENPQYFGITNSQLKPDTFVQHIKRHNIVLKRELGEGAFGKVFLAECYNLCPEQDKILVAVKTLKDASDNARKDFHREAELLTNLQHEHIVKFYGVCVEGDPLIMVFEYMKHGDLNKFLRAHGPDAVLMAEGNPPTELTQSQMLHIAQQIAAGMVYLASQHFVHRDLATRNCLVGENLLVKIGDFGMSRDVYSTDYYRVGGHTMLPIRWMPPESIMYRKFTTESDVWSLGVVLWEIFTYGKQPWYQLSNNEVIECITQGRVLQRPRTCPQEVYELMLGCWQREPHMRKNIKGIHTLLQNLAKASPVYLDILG

Biological target: tropomyosin receptor kinase B (TrkB) (human (endogenous in FT240)) (UniProt Q16620)
Experiment: co-IP; FTE cells (FT240) expressing GFP or mutant p53; SureBeads (Bio-Rad) incubated with 1 µg antibody for 10 min at room temperature; which partner was precipitated is not told in the main text

B1: Golgi Associated Gamma Adaptin Ear Containing ARF Binding Protein 3 (GGA3) (protein, UniProt Q9NZ52 1-723)
chain: MAEAEGESLESWLNKATNPSNRQEDWEYIIGFCDQINKELEGPQIAVRLLAHKIQSPQEWEALQALTVLEACMKNCGRRFHNEVGKFRFLNELIKVVSPKYLGDRVSEKVKTKVIELLYSWTMALPEEAKIKDAYHMLKRQGIVQSDPPIPVDRTLIPSPPPRPKNPVFDDEEKSKLLAKLLKSKNPDDLQEANKLIKSMVKEDEARIQKVTKRLHTLEEVNNNVRLLSEMLLHYSQEDSSDGDRELMKELFDQCENKRRTLFKLASETEDNDNSLGDILQASDNLSRVINSYKTIIEGQVINGEVATLTLPDSEGNSQCSNQGTLIDLAELDTTNSLSSVLAPAPTPPSSGIPILPPPPQASGPPRSRSSSQAEATLGPSSTSNALSWLDEELLCLGLADPAPNVPPKESAGNSQWHLLQREQSDLDFFSPRPGTAACGASDAPLLQPSAPSSSSSQAPLPPPFPAPVVPASVPAPSAGSSLFSTGVAPALAPKVEPAVPGHHGLALGNSALHHLDALDQLLEEAKVTSGLVKPTTSPLIPTTTPARPLLPFSTGPGSPLFQPLSFQSQGSPPKGPELSLASIHVPLESIKPSSALPVTAYDKNGFRILFHFAKECPPGRPDVLVVVVSMLNTAPLPVKSIVLQAAVPKSMKVKLQPPSGTELSPFSPIQPPAAITQVMLLANPLKEKVRLRYKLTFALGEQLSTEVGEVDQFPPVEQWGNL
- binding: binds
